The results in this text go back to US12076417B2, “Plasma-derived nanoparticles” (NANOMEDX, INC., priority 2016, dated 2024).

The data set is described as follows: Quantification of molecular cargo bound to nanoP^3. The conditions noted are these: 10^9 nanoP^3/mL; room temperature; RT-PCR grade water pH=7; 1 hour.

The structures appear in SMILES notation.

For the compound `CC1(C)C(/C=C/C=C/C=C/C=C2\N(CCCCS(=O)(=O)[O-])c3ccc4ccccc4c3C2(C)C)=[N+](CCCCS(=O)(=O)[O-])c2ccc3ccccc3c21.[Na+]` [ICG, sodium 4-[2-[(1E,3E,5E,7Z)-7-[1,1-dimethyl-3-(4-sulfonatobutyl)benzo[e]indol-2ylidene]hepta-1,3,5-trienyl]-1,1-dimethylbenzo[e]indol-3-ium-3-yl]butane-1-sulfonate], the “cargo mass at surface saturation of nanoP^3” value came out at 2.9 µg.
For `CC(=O)O[C@H]1C(=O)[C@@]2(C)[C@H]([C@H](OC(=O)c3ccccc3)[C@]3(O)C[C@H](OC(=O)[C@H](O)[C@@H](NC(=O)c4ccccc4)c4ccccc4)C(C)=C1C3(C)C)[C@]1(OC(C)=O)CO[C@@H]1C[C@@H]2O` [paclitaxel, Paclitaxel-Oregon Green 488], the “cargo mass at surface saturation of nanoP^3” value came out at 2.3 µg.
